Laboratory results as given in the supplement of paper PMC12823440, “Inhibitors supercharge kinase turnover through native proteolytic circuits” (Nature, 2025).
Counter-ions that a name gives are not always drawn. The list shows a part of the results. The calls rarely recur for the same compound in another form.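 In K562 cells expressing nanoluciferase-fused kinases, luminescence was recorded at 4 h intervals between 2 and 18 h, normalized as percent of control with DMSO at 100% and a positive control at 0%. A significant (2 sigma) signal drop marks a time point as decreased. The authors' rule for a hit is not shown and takes in more than the number of time points.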

Amino acid sequences for entries named in this document (tags omitted). A change or cut given only in a name is not applied to a line headed by its entry.
UniProt Q9UQM7, whole entry: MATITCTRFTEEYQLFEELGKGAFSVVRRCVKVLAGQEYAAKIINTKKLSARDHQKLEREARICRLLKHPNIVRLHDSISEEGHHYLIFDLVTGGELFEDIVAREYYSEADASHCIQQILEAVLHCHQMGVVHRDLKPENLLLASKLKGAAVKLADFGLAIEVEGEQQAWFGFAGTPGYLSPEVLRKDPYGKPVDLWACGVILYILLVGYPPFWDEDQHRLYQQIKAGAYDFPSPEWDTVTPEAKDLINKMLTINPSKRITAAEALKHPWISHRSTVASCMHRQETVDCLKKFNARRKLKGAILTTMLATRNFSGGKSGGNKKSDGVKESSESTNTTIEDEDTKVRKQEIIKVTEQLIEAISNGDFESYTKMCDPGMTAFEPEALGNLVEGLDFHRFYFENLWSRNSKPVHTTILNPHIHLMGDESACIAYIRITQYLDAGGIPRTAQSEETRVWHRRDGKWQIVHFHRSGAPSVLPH
UniProt Q13555: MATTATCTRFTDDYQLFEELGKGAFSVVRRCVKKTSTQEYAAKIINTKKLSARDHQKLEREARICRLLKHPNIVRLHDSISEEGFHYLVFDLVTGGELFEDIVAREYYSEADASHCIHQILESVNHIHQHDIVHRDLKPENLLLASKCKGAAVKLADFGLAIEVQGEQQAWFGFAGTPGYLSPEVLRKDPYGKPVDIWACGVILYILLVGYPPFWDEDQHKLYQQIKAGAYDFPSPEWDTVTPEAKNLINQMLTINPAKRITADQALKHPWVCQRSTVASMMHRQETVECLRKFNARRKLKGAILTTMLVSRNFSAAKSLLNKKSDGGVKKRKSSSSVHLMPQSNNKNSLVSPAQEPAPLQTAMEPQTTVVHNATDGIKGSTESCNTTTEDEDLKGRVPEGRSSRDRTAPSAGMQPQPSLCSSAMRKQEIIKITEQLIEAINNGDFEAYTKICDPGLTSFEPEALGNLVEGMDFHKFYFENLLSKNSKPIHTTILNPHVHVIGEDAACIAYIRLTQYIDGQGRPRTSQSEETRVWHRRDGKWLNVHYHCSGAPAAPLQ
UniProt Q15131: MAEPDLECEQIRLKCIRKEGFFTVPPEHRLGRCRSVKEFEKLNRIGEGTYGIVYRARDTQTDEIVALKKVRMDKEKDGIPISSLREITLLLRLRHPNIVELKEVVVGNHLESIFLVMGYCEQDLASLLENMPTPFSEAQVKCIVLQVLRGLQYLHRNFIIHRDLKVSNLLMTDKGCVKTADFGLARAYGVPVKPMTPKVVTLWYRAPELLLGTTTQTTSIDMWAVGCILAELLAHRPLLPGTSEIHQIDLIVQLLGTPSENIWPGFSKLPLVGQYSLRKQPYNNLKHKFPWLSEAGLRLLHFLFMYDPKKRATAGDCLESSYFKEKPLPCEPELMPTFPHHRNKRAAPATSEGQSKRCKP
UniProt Q00526: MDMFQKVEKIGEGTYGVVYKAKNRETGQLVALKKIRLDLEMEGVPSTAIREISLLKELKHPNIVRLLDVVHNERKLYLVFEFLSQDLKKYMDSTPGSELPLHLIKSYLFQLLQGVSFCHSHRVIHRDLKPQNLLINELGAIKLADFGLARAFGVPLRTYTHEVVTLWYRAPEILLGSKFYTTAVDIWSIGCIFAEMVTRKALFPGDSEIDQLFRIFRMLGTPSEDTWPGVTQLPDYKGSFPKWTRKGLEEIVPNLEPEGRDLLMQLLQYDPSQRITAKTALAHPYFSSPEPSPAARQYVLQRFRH
UniProt Q00535, whole entry, looked up: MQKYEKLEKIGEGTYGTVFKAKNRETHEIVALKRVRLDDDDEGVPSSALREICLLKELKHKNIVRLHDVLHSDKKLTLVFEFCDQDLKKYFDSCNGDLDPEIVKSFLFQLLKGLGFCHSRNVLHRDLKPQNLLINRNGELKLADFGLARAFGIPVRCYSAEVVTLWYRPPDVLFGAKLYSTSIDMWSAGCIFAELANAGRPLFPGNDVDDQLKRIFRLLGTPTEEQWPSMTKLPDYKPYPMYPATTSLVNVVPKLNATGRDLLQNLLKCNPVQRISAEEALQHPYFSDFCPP
UniProt Q00534, whole entry: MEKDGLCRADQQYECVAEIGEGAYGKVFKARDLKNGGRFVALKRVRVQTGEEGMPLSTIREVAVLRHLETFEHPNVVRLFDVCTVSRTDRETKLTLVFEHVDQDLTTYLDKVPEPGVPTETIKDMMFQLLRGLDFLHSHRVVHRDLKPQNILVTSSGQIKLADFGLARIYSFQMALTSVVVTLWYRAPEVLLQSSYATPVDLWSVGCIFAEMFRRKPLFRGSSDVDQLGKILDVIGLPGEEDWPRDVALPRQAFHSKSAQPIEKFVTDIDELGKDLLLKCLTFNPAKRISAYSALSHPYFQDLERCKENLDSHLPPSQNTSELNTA
UniProt O96017, whole entry: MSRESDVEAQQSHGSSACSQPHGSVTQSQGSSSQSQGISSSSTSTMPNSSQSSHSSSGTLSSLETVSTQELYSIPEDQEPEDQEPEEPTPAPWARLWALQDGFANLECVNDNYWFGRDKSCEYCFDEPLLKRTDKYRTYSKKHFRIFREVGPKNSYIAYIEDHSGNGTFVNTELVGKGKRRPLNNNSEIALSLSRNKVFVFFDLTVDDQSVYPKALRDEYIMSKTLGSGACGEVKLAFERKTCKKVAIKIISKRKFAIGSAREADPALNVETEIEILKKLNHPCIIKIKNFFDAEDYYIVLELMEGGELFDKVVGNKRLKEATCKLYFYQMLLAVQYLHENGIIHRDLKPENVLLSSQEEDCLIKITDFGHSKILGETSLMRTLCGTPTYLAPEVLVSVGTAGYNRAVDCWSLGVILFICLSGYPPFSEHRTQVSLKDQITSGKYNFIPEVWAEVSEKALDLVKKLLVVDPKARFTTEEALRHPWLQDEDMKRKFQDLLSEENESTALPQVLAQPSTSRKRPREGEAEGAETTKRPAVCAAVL
UniProt P07333, whole entry: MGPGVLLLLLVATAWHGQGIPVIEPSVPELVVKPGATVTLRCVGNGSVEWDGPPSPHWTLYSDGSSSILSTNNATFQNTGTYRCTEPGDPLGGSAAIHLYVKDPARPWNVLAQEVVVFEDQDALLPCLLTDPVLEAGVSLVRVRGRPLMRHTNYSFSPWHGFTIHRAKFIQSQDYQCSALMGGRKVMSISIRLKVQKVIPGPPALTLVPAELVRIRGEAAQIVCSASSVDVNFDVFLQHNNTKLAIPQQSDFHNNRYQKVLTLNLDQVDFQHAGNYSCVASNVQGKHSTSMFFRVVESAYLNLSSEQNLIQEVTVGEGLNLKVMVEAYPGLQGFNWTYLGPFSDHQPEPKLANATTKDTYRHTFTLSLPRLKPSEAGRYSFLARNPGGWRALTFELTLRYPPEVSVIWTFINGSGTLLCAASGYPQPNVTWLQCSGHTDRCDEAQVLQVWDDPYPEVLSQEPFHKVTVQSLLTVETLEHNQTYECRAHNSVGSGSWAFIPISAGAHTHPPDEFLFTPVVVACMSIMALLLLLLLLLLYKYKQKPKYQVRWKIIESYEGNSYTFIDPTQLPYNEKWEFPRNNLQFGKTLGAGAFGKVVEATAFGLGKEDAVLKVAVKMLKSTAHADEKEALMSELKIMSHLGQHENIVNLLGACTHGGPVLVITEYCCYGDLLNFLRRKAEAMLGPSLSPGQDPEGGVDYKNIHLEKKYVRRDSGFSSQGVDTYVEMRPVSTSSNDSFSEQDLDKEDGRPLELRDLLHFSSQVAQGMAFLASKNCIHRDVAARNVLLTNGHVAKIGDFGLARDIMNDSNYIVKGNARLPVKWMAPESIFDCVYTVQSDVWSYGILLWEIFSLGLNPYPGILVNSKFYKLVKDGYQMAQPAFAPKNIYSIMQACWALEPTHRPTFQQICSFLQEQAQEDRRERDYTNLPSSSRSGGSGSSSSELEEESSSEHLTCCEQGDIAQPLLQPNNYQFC
UniProt P41240: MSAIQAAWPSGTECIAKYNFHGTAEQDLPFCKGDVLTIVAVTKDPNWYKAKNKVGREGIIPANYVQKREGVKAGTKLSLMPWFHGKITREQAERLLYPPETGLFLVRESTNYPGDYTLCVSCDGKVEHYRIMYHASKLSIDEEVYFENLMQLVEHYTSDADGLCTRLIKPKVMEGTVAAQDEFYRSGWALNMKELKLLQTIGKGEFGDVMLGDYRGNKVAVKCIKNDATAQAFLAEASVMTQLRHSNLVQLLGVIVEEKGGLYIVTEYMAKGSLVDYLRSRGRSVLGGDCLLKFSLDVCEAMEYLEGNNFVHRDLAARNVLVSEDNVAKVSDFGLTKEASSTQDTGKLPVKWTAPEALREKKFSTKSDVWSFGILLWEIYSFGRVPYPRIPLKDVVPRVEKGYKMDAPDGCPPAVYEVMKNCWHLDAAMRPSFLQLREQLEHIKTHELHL
UniProt P48729: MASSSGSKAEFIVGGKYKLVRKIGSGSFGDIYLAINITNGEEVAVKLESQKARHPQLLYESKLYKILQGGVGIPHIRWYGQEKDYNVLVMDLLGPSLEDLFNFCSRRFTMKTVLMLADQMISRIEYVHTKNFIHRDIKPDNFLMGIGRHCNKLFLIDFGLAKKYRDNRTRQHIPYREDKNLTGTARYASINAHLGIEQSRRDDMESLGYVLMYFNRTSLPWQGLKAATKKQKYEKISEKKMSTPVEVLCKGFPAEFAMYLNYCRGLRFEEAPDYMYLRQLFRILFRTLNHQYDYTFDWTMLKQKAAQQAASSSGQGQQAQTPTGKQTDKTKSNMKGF
UniProt P48730: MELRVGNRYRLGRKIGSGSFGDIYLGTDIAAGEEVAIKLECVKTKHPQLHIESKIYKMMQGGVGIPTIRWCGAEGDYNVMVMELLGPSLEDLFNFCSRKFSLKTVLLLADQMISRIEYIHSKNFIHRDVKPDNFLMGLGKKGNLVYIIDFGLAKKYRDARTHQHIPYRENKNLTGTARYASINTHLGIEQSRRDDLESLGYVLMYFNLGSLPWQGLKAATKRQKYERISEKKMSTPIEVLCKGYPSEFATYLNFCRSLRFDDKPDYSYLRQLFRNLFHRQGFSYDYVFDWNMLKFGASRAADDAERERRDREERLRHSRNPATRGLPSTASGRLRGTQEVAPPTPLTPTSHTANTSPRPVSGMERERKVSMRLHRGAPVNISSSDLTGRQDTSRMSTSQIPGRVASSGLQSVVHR
UniProt Q9Y463, whole entry, looked up: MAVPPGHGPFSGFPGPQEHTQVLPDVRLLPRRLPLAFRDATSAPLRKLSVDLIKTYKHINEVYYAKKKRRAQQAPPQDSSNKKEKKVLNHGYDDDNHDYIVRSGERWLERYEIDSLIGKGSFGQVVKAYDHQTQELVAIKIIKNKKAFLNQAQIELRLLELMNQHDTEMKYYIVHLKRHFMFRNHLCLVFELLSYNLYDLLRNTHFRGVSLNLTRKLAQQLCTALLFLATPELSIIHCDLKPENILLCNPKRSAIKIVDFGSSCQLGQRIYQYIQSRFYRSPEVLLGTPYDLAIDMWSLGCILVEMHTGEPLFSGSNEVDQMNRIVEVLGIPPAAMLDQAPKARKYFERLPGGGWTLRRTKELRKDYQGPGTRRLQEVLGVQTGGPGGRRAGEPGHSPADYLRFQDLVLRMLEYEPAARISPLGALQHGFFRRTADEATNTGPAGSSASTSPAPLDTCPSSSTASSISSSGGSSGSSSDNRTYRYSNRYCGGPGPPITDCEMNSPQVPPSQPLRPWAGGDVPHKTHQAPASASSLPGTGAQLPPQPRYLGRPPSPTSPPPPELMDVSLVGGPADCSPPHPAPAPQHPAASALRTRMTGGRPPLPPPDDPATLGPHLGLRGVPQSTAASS
UniProt Q92630: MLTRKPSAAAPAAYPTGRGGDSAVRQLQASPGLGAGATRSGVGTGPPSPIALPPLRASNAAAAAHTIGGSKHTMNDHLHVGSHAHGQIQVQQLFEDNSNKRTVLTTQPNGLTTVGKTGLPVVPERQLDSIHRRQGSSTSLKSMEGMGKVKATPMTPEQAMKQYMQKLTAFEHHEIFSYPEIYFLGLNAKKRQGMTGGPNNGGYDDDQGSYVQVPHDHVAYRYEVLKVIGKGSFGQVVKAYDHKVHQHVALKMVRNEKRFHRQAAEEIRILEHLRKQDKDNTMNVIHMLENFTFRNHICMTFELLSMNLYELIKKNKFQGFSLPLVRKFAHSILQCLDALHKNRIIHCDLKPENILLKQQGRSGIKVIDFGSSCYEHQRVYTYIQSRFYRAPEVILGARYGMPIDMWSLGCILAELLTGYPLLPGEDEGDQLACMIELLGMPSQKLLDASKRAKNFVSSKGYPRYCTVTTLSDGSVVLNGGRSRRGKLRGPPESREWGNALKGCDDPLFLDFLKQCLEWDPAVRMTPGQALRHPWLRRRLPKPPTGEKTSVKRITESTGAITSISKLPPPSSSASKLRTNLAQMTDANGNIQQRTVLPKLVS

Legend:
Experiment in all cases: number of time points (of 5) at which kinase-Nluc abundance scored as decreased, DMSO-normalised (count); higher = more persistent destabilization
Conditions in all cases: K562; 2-18 h
CAMK2A = CAMK2A (UniProt Q9UQM7)
CAMK2G = CAMK2G (UniProt Q13555)
CDK10 = CDK10 (UniProt Q15131)
CDK2 = CDK2 (UniProt P24941)
CDK3 = CDK3 (UniProt Q00526)
CDK5 = CDK5 (UniProt Q00535)
CDK6 = CDK6 (UniProt Q00534)
CHEK2 = CHEK2 (UniProt O96017)
CSF1R = CSF1R (UniProt P07333)
CSK = CSK (UniProt P41240)
CSNK1A1 = CSNK1A1 (UniProt P48729)
CSNK1D = CSNK1D (UniProt P48730)
DDR1 = DDR1 (UniProt Q08345)
DYRK1B = DYRK1B (UniProt Q9Y463)
DYRK2 = DYRK2 (UniProt Q92630)
EGFR = EGFR (UniProt P00533)
EGFR_G719S = EGFR_G719S (UniProt P00533)
EGFR_G719S_T790M = EGFR_G719S_T790M (UniProt P00533)
EGFR_L718V = EGFR_L718V (UniProt P00533)
EGFR_L858R = EGFR_L858R (UniProt P00533)

| Compound | number of time points (CAMK2A) | number of time points (CAMK2G) | number of time points (CDK10) | number of time points (CDK2) | number of time points (CDK3) | number of time points (CDK5) | number of time points (CDK6) | number of time points (CHEK2) | number of time points (CSF1R) | number of time points (CSK) | number of time points (CSNK1A1) | number of time points (CSNK1D) | number of time points (DDR1) | number of time points (DYRK1B) | number of time points (DYRK2) | number of time points (EGFR) | number of time points (EGFR_G719S) | number of time points (EGFR_G719S_T790M) | number of time points (EGFR_L718V) | number of time points (EGFR_L858R) |
| --- | --- | --- | --- | --- | --- | --- | --- | --- | --- | --- | --- | --- | --- | --- | --- | --- | --- | --- | --- | --- |
| FC(F)(F)c1ccc(CNc2ccc(Cc3c[nH]c4ncc(Cl)cc34)cn2)cc1 (10 µM) | 0 | 0 | 0 | 0 | 0 | 0 | 1 | 0 | 0 | 0 | 0 | 0 | 0 | 0 | 0 | 0 | 0 | 0 | 0 | 0 |
| CC(C)(C)S(=O)(=O)c1cc2c(Nc3ccc4scnc4c3)ncnc2cc1OCCO (2.5 µM) | 0 | 0 | 0 | 0 | 0 | 0 | 0 | 0 | 0 | 0 | 0 | 0 | 0 | 0 | 0 | 0 | 0 | 0 | 0 | 0 |
| O=c1cc(-c2ccccc2)oc2c(O)c(O)ccc12 [7,8-Dihydroxyflavone] (10 µM) | 0 | 0 | 0 | 0 | 0 | 0 | 0 | 0 | 0 | 0 | 0 | 0 | 0 | 0 | 0 | 0 | 0 | 0 | 0 | 0 |
| COc1cc(OC)cc(N(CCNC(C)C)c2ccc3ncc(-c4cnn(C)c4)nc3c2)c1 [Erdafitinib] (2.5 µM) | 0 | 0 | 0 | 0 | 0 | 0 | 0 | 0 | 0 | 0 | 0 | 0 | 0 | 0 | 1 | 0 | 0 | 0 | 0 | 0 |
| COCc1c(-c2ccc(NC(=O)Nc3cc(C(F)(F)F)ccc3F)c(F)c2)c2c(N)ncnn2c1CN1CCOCC1 (2.5 µM) | 0 | 0 | 0 | 0 | 0 | 0 | 0 | 0 | 0 | 0 | 0 | 0 | 0 | 0 | 0 | 0 | 0 | 0 | 0 | 0 |
| C=CC(=O)N1CCC[C@@H](n2nc(-c3ccc(Oc4ccccc4)cc3)c(C(N)=O)c2N)C1 [Btk inhibitor 2] (10 µM) | 0 | 0 | 0 | 0 | 0 | 0 | 0 | 0 | 0 | 0 | 0 | 0 | 0 | 0 | 1 | 0 | 0 | 0 | 0 | 0 |
| C[C@H](NC(=O)/C(C#N)=C/c1cccc(Br)n1)c1ccccc1 (2.5 µM) | 0 | 0 | 0 | 0 | 0 | 0 | 0 | 0 | 0 | 0 | 0 | 0 | 0 | 0 | 0 | 0 | 0 | 0 | 0 | 0 |
| CCCCNc1ncc(-c2ccc(CN3CCOCC3)cn2)c(NC2CCC(O)CC2)n1 (stereo not given) (10 µM) | 0 | 0 | 0 | 0 | 0 | 0 | 0 | 0 | 0 | 0 | 0 | 0 | 0 | 0 | 0 | 0 | 0 | 0 | 0 | 0 |
| COc1cc(OC)c(F)c(COc2cnc(Nc3cnn(CCO)c3)nc2)c1F (2.5 µM) | 0 | 2 | 0 | 0 | 0 | 0 | 0 | 2 | 0 | 0 | 0 | 0 | 0 | 0 | 1 | 0 | 0 | 0 | 1 | 2 |
| O=C(/C=C/c1ccc(O)c(O)c1)c1ccc(O)cc1O [Butein] (10 µM) | 0 | 2 | 0 | 0 | 0 | 0 | 0 | 2 | 2 | 0 | 1 | 0 | 2 | 0 | 5 | 0 | 2 | 2 | 0 | 1 |
| COc1cc(F)cc([C@@H](CO)NC(=O)[C@@H](C)N2Cc3ccc(-c4nc(NC5CCOCC5)ncc4Cl)cc3C2=O)c1 [ERK1/2 inhibitor 2] (10 µM) | 0 | 0 | 0 | 0 | 0 | 0 | 0 | 0 | 0 | 0 | 0 | 0 | 0 | 0 | 0 | 0 | 0 | 0 | 0 | 0 |
| CCN1C(=O)N(c2c(F)c(OC)cc(OC)c2F)Cc2cnc3[nH]c(CN4CCOCC4)cc3c21 [Pemigatinib] (10 µM) | 0 | 0 | 0 | 0 | 0 | 0 | 0 | 0 | 0 | 0 | 0 | 0 | 0 | 0 | 0 | 0 | 0 | 0 | 0 | 0 |
| CN(C)CCOc1ccc(-c2nc(-c3ccncc3)c(-c3ccc4c(c3)CC/C4=N\O)[nH]2)cc1 (10 µM) | 0 | 0 | 0 | 0 | 0 | 0 | 0 | 0 | 0 | 0 | 0 | 0 | 0 | 3 | 0 | 0 | 0 | 0 | 0 | 0 |
| CC#CC(=O)N[C@H]1CCCN(c2c(F)cc(C(N)=O)c3[nH]c(C)c(C)c23)C1 [Branebrutinib] (10 µM) | 0 | 0 | 0 | 0 | 0 | 0 | 0 | 0 | 0 | 0 | 0 | 0 | 0 | 0 | 0 | 0 | 0 | 0 | 0 | 0 |
| CCC(=O)N1CCN(c2ccc(-n3c(=O)ccc4cnc5ccc(-c6cnc7ccccc7c6)cc5c43)cc2C(F)(F)F)CC1 [Torin 1] (2 µM) | 0 | 0 | 0 | 0 | 0 | 0 | 0 | 0 | 0 | 0 | 0 | 0 | 1 | 0 | 3 | 0 | 0 | 0 | 0 | 0 |
| C=CC(=O)N1C[C@H](Nc2ncnc3[nH]ccc23)CC[C@@H]1C [Ritlecitinib] (10 µM) | 0 | 0 | 0 | 0 | 0 | 0 | 0 | 0 | 0 | 0 | 0 | 0 | 0 | 0 | 0 | 0 | 0 | 0 | 0 | 0 |
| CC(C)(C)n1nc(Cc2cccc3ccccc23)c2c(N)ncnc21 (10 µM) | 0 | 0 | 0 | 0 | 0 | 0 | 0 | 0 | 0 | 0 | – | 0 | 0 | 0 | 0 | 0 | 0 | 0 | 0 | 0 |
| O=c1oc2c(C3OCCCO3)c(O)ccc2c2c1CNCC2 (10 µM) | 0 | 0 | 0 | 0 | 0 | 0 | 0 | 0 | 0 | 0 | 0 | 0 | 0 | 0 | 0 | 0 | 0 | 0 | 0 | 0 |
| Cc1ccc(NC(=O)c2cccc(N(C)C)c2)cc1NC(=O)c1ccc(O)cc1 (10 µM) | 0 | 0 | 0 | 0 | 0 | 0 | 0 | 0 | 0 | 0 | 0 | 0 | 0 | 0 | 0 | 0 | 0 | 0 | 0 | 0 |
| CN(C)C[C@@H]1CCn2cc(c3ccccc32)C2=C(C(=O)NC2=O)c2cn(c3ccccc23)CCO1 [Ruboxistaurin (hydrochloride)] (10 µM) | 0 | 0 | 0 | 0 | 0 | 0 | 0 | 0 | 0 | 0 | 0 | 0 | 0 | 0 | 0 | 0 | 0 | 0 | 0 | 0 |
| O=C(O)CCNC(=O)c1ccc(/N=N/c2ccc(O)c(C(=O)O)c2)cc1 [Balsalazide] (10 µM) | 0 | 0 | 0 | 0 | 0 | 0 | 0 | 0 | 0 | 0 | 0 | 0 | 0 | 0 | 0 | 0 | 0 | 0 | 0 | 0 |
| CCn1cc(-c2ccnc3[nH]c(-c4cccc(CN(C)C)c4)cc23)c(-c2ccc(NC(=O)N(C)C)cc2)n1 (2.5 µM) | 0 | 0 | 0 | 0 | 0 | 0 | 0 | 0 | 0 | 0 | 0 | – | 0 | 0 | 0 | 0 | 0 | 0 | 0 | 0 |
| CC(C)C(=O)Nc1ncc(-c2cc(C(F)F)nn2-c2c(Cl)cccc2Cl)s1 (10 µM) | 0 | 0 | 0 | 0 | 0 | 0 | 0 | 0 | 0 | 0 | 1 | 0 | 0 | 0 | 0 | 0 | – | 0 | 0 | 0 |
| O=S(=O)(NCCNC/C=C/c1ccc(Br)cc1)c1cccc2cnccc12 [H-89 (dihydrochloride)] (10 µM) | 0 | 0 | 0 | 0 | 0 | 0 | 0 | 0 | 0 | 0 | 0 | – | – | 0 | 0 | – | – | – | – | – |

Looked up above:
Under number of time points (EGFR_L858R), O=c1oc2c(C3OCCCO3)c(O)ccc2c2c1CNCC2 (10 µM) has the entry 0
Under number of time points (EGFR_G719S), CN(C)C[C@@H]1CCn2cc(c3ccccc32)C2=C(C(=O)NC2=O)c2cn(c3ccccc23)CCO1 [Ruboxistaurin (hydrochloride)] (10 µM) has the entry 0
